Data: patent US20240082212A1, “USE OF MDMA FOR TREATMENT OF STRESS-RELATED DISORDERS” (priority 2022, published 2024)

Tested on: cortical neurons
Assay: Neurite outgrowth in embryonic rat cortical neuron cultures
Assay type: cell-based
Conditions: 250 nM positive control, 3 days, vs vehicle
Excerpt: Female Wistar rats of 17 days gestation were killed by cervical dislocation and the fetuses (typically 6 to 8 in number) were removed from the uteri. Fetal brains were placed in ice-cold medium of Leibovitz (L15, Gibco, France). Cortex was dissected and meninges were carefully removed. The cortical neurons were dissociated by trypsinization (trypsin-EDTA, Gibco) in the presence of DNAse I (Roche, France). The reaction was stopped by addition of Dulbecco's Modified Eagle Medium (DMEM; Gibco) with 10% of fetal bovine serum (FBS; Gibco). The suspension was triturated with a 10-ml pipette and a 21-gauge needle syringe and centrifuged. The pellet of dissociated cells was resuspended in a medium consisting of Neurobasal (Gibco) supplemented with 2% B27 supplement (Gibco), 0.5 mM L-Glutamine (Gibco), and an antibiotic-antimycotic mixture. Viable cells were counted in a Neubauer cytometer and cells were seeded in 96-well plates (Costar) precoated with poly-L-lysine at 10,000 cells/well. […] Stock solutions were prepared in sterile water at 10 mM and stored at −20° C. until used. Further dilutions were prepared in culture in the medium on the day of the treatment. 0.1% Sterile water was present in all tested conditions.
The experimental protocol was performed in two independent cultures (i.e., from two different pregnant rats). For each culture, each condition was tested in sextuplet (6 wells per condition per culture for a total of 12 wells per condition). […] After rinsing the cells with PBS, the plate was imaged and neurite networks were examined and analyzed using a High-Content Screening platform (CellInsight CXS, Thermo Scientific) with integrated Photometrics high-resolution fluorescent camera, Olympus objective (10×) and HCS Studio Cell Analysis Software. Approximately 2,000 neurons per well were analyzed using a validated cortex neuron outgrowth algorithm that utilizes parameters optimized for analysis of embryonic rat cortical neuron cultures. […] Results were expressed as mean (±s.e.m.) of the transformed (% of vehicle control) data. […]

COc1cc2c(cc1OC)C(=O)C(CC1CCN(Cc3ccccc3)CC1)C2 (stereo not drawn) [Donepezil]
significantly increasing: neurite number (#) | neurite total length (μm) | total number of branch points (#)
